{"source": "PubChem BioAssay AID743121 (NCATS, 2013)", "purpose": "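Knock-downs that sensitise breast cancer cells to camptothecin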 (primary screen)", "system": "MDA-MB-231 cells, a human breast cancer line", "knock-down reagent": "single siRNA against human genes, 20 nM siRNA (0.8 pmol per well)", "duration": "120 h (drug added 48 h after transfection, read 72 h later)", "treatment": "camptothecin 20 nM (about EC30) for 72 h; vehicle 0.1% DMSO in parallel plates", "measured": "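CellTiter-Glo ATP signal, scaled to control siRNA as percent viability; sensitisation given as log2 of untreated divided by camptothecin-treated viability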", "scale": "log2 vehicle/camptothecin viability: higher = stronger sensitisation to camptothecin; viability with camptothecin: higher = more viable cells", "rule for the call": "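Active genes have an RSA gene-level p-value below 0.001, computed from the ratios of their separate siRNAs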", "note": "In all, the deposit lists about 26,000 reagents; shown is a part drawn at random. In the full data, 167 (0.63%) were called active. 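Calls are per gene from RSA p-values that are not deposited; an individual active-marked siRNA can sensitise only weakly.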 Entries without a mark were called inactive. Reagents against one gene are numbered here. Not all columns of the deposit are shown. Reagent sequences are not shown."}
{"gene": "KAT2B", "reagent no.": 1, "log2 vehicle/camptothecin viability": -0.0957, "viability with camptothecin (% of control)": 91.7}
{"gene": "KAT2B", "reagent no.": 2, "log2 vehicle/camptothecin viability": -0.131, "viability with camptothecin (% of control)": 116}
{"gene": "KAT2B", "reagent no.": 3, "log2 vehicle/camptothecin viability": 0.232, "viability with camptothecin (% of control)": 68.2}
{"gene": "KAT2B", "reagent no.": 4, "log2 vehicle/camptothecin viability": -0.306, "viability with camptothecin (% of control)": 36}
{"gene": "TBX21", "reagent no.": 1, "log2 vehicle/camptothecin viability": -0.51, "viability with camptothecin (% of control)": 120}
{"gene": "TBX21", "reagent no.": 2, "log2 vehicle/camptothecin viability": -0.109, "viability with camptothecin (% of control)": 98.5}
{"gene": "TBX21", "reagent no.": 3, "log2 vehicle/camptothecin viability": 0.00846, "viability with camptothecin (% of control)": 67.9}
{"gene": "TBX21", "reagent no.": 4, "log2 vehicle/camptothecin viability": 0.165, "viability with camptothecin (% of control)": 48.3}
{"gene": "BLTP1", "reagent no.": 1, "log2 vehicle/camptothecin viability": -0.0258, "viability with camptothecin (% of control)": 113}
{"gene": "BLTP1", "reagent no.": 2, "log2 vehicle/camptothecin viability": -0.249, "viability with camptothecin (% of control)": 102}
{"gene": "BLTP1", "reagent no.": 3, "log2 vehicle/camptothecin viability": -0.0486, "viability with camptothecin (% of control)": 125}
{"gene": "BLTP1", "reagent no.": 4, "log2 vehicle/camptothecin viability": -0.106, "viability with camptothecin (% of control)": 103}
{"gene": "BLTP1", "reagent no.": 5, "log2 vehicle/camptothecin viability": -0.18, "viability with camptothecin (% of control)": 106}
{"gene": "BLTP1", "reagent no.": 6, "log2 vehicle/camptothecin viability": 0.106, "viability with camptothecin (% of control)": 106}
{"gene": "BLTP1", "reagent no.": 7, "log2 vehicle/camptothecin viability": -0.264, "viability with camptothecin (% of control)": 97}
{"gene": "BLTP1", "reagent no.": 8, "log2 vehicle/camptothecin viability": -0.225, "viability with camptothecin (% of control)": 88.5}
{"gene": "FZD5", "reagent no.": 1, "log2 vehicle/camptothecin viability": -0.179, "viability with camptothecin (% of control)": 106}
{"gene": "FZD5", "reagent no.": 2, "log2 vehicle/camptothecin viability": 0.445, "viability with camptothecin (% of control)": 27.4}
{"gene": "FZD5", "reagent no.": 3, "log2 vehicle/camptothecin viability": -0.693, "viability with camptothecin (% of control)": 17.4}
{"gene": "FZD5", "reagent no.": 4, "log2 vehicle/camptothecin viability": 0.011, "viability with camptothecin (% of control)": 110}
{"gene": "RB1", "reagent no.": 1, "log2 vehicle/camptothecin viability": 0.447, "viability with camptothecin (% of control)": 64.3}
{"gene": "RB1", "reagent no.": 2, "log2 vehicle/camptothecin viability": -0.0343, "viability with camptothecin (% of control)": 92.9}
{"gene": "RB1", "reagent no.": 3, "log2 vehicle/camptothecin viability": 0.0562, "viability with camptothecin (% of control)": 101}
{"gene": "RB1", "reagent no.": 4, "log2 vehicle/camptothecin viability": -0.221, "viability with camptothecin (% of control)": 107}
{"gene": "SLC26A4", "reagent no.": 1, "log2 vehicle/camptothecin viability": 0.111, "viability with camptothecin (% of control)": 90.9}
{"gene": "SLC26A4", "reagent no.": 2, "log2 vehicle/camptothecin viability": -0.133, "viability with camptothecin (% of control)": 92.1}
{"gene": "SLC26A4", "reagent no.": 3, "log2 vehicle/camptothecin viability": -0.201, "viability with camptothecin (% of control)": 118}
{"gene": "IARS2", "reagent no.": 1, "log2 vehicle/camptothecin viability": -0.089, "viability with camptothecin (% of control)": 76.1}
{"gene": "IARS2", "reagent no.": 2, "log2 vehicle/camptothecin viability": -0.304, "viability with camptothecin (% of control)": 109}
{"gene": "IARS2", "reagent no.": 3, "log2 vehicle/camptothecin viability": -0.406, "viability with camptothecin (% of control)": 57.4}
{"gene": "PHF19", "reagent no.": 1, "log2 vehicle/camptothecin viability": -0.191, "viability with camptothecin (% of control)": 101}
{"gene": "PHF19", "reagent no.": 2, "log2 vehicle/camptothecin viability": -0.124, "viability with camptothecin (% of control)": 93.8}
{"gene": "PHF19", "reagent no.": 3, "log2 vehicle/camptothecin viability": -0.15, "viability with camptothecin (% of control)": 75.1}
{"gene": "PHF19", "reagent no.": 4, "log2 vehicle/camptothecin viability": -0.563, "viability with camptothecin (% of control)": 85.5}
{"gene": "PSMC3IP", "reagent no.": 1, "log2 vehicle/camptothecin viability": 0.785, "viability with camptothecin (% of control)": 14.3}
{"gene": "PSMC3IP", "reagent no.": 2, "log2 vehicle/camptothecin viability": -0.282, "viability with camptothecin (% of control)": 97.7}
{"gene": "PSMC3IP", "reagent no.": 3, "log2 vehicle/camptothecin viability": -0.191, "viability with camptothecin (% of control)": 93.2}
{"gene": "PSMC3IP", "reagent no.": 4, "log2 vehicle/camptothecin viability": 0.28, "viability with camptothecin (% of control)": 71.9}

An excerpt from the list above:
{"gene": "IARS2", "reagent no.": 1, "log2 vehicle/camptothecin viability": -0.089, "viability with camptothecin (% of control)": 76.1}
{"gene": "IARS2", "reagent no.": 2, "log2 vehicle/camptothecin viability": -0.304, "viability with camptothecin (% of control)": 109}
